In the test the target is ubiquitin-specific peptidase 10 (USP10) (human (endogenous in HT29)) (UniProt Q14694). Nature of the test: co-IP; whole-cell extracts (50 mM Tris-HCl pH 7.5, 150 mM NaCl, 5 mM EDTA, protease inhibitors) precipitated with antibody against USP10, 4 °C, protein A/G agarose; NLRP7 detected by western blot. (In general: Immunoblotting shows a protein as a band on a membrane.)

Amino acid sequences for entries named in this document (tags omitted).
UniProt Q14694: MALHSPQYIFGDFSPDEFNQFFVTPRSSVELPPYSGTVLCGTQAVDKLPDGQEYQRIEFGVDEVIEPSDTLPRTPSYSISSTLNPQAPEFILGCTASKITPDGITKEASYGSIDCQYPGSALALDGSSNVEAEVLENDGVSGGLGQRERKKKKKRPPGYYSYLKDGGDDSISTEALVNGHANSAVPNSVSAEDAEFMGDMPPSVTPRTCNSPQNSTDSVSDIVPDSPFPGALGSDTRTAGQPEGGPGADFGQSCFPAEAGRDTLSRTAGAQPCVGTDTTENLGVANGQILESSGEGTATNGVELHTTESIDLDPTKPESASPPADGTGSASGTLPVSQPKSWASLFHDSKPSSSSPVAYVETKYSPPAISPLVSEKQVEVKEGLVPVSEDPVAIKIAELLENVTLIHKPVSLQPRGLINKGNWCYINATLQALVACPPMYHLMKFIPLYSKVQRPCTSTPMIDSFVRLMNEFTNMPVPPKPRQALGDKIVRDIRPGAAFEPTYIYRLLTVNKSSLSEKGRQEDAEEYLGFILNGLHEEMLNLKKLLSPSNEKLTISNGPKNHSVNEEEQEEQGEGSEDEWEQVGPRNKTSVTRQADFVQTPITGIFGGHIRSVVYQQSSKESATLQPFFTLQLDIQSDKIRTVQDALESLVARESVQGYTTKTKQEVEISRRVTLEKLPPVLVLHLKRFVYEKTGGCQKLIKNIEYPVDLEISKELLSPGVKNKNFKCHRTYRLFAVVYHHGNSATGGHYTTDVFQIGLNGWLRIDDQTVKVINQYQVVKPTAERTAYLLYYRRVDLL

No constants are given. Whether binding was seen depends on the method and setting. In cells and extracts the contact can be indirect. Some binding calls cover weakened binding; strength is not graded here. Where a sequence is shown, tags or fusion partners need not be part of it.

B1: Flag-NLRP7 (NACHT, LRR and PYD domains-containing protein 7) (protein, UniProt Q8WX94 1-980)
chain: MTSPQLEWTLQTLLEQLNEDELKSFKSLLWAFPLEDVLQKTPWSEVEEADGKKLAEILVNTSSENWIRNATVNILEEMNLTELCKMAKAEMMEDGQVQEIDNPELGDAEEDSELAKPGEKEGWRNSMEKQSLVWKNTFWQGDIDNFHDDVTLRNQRFIPFLNPRTPRKLTPYTVVLHGPAGVGKTTLAKKCMLDWTDCNLSPTLRYAFYLSCKELSRMGPCSFAELISKDWPELQDDIPSILAQAQRILFVVDGLDELKVPPGALIQDICGDWEKKKPVPVLLGSLLKRKMLPRAALLVTTRPRALRDLQLLAQQPIYVRVEGFLEEDRRAYFLRHFGDEDQAMRAFELMRSNAALFQLGSAPAVCWIVCTTLKLQMEKGEDPVPTCLTRTGLFLRFLCSRFPQGAQLRGALRTLSLLAAQGLWAQMSVFHREDLERLGVQESDLRLFLDGDILRQDRVSKGCYSFIHLSFQQFLTALFYALEKEEGEDRDGHAWDIGDVQKLLSGEERLKNPDLIQVGHFLFGLANEKRAKELEATFGCRMSPDIKQELLQCKAHLHANKPLSVTDLKEVLGCLYESQEEELAKVVVAPFKEISIHLTNTSEVMHCSFSLKHCQDLQKLSLQVAKGVFLENYMDFELDIEFERCTYLTIPNWARQDLRSLRLWTDFCSLFSSNSNLKFLEVKQSFLSDSSVRILCDHVTRSTCHLQKVEIKNVTPDTAYRDFCLAFIGKKTLTHLTLAGHIEWERTMMLMLCDLLRNHKCNLQYLRLGGHCATPEQWAEFFYVLKANQSLKHLRLSANVLLDEGAMLLYKTMTRPKHFLQMLSLENCRLTEASCKDLAAVLVVSKKLTHLCLAKNPIGDTGVKFLCEGLSYPDCKLQTLVLQQCSITKLGCRYLSEALQEACSLTNLDLSINQIARGLWILCQALENPNCNLKHLRLKTYETNLEIKKLLEEVKEKNPKLTIDCNASGATAPPCCDFFC
B1: the binding result is on record as “binds”.

Values taken from paper PMC8035766.
